Measurements as given in patent US20220356169A1, “TETRAZINES FOR HIGH CLICK RELEASE SPEED AND YIELD” (priority 2019, published 2022).
Read-outs that look alike come from different tables or passages of the source. For part of these data: For at least one compound, name, drawing or mass did not settle the structure. Some results were stated once for a whole list of compounds, not compound by compound.

Columns and labels:
[1] = test system: TCO Trigger on tumor-bound ADC; assay: In vivo reactivity between ADC AVP0458-TCO-MMAE and tetrazine activators (tumor activation study); settings: LS174T tumor bearing mice; 125I-labeled ADC 2 mg/kg, activator 48 h later; FIG. 6A
Method: Female nude Balb/C mice were subcutaneously inoculated ca. 1×10^6 LS174T cells in the hind limb. Biodistribution studies started when the tumors reached 0.1-0.2 cm^3 size. Experiments were carried out to evaluate the reactivity between the TCO Trigger on tumor-bound ADC and activators 2.7, 2.8, 2.14 and 2.16 in LS174T xenografts, as previously performed for other activators [Rossin et al Nature Communications 2018, 9, 1484]. The activators were administered at a 20- to 100-lower dose than that used in previous activation and therapy studies (ca. 0.335 mmol/kg). […] Groups of tumor bearing mice (n=4) were injected with ^125I-labeled ADC (2 mg/kg) followed 48 h later by the activators (dose 1×: ca. 3.3 μmol/kg; dose 5×: ca. 16.7 μmol/kg) and, after 1 h, by [^111In]In-2.20 (ca. 0.33 μmol/kg). One group was injected with the same amount of ^125I-labeled ADC followed only by ^111In-2.20 49 h later. One group was injected only with ^111In-2.20 (non-specific probe binding). All mice were euthanized 23 h post-probe injection and the ^125I and ^111In uptakes in tumors were measured by γ-counting.

[2] = cited from earlier work

Which “in vivo reaction yield between the TCO and activator” value [1] does the source give for `Oc1cccnc1-c1nnc(-c2ncccc2O)nn1` [2.7, 2,2′-(1,2,4,5-Tetrazine-3,6-diyl)bis(pyridin-3-ol)] here?
The value was 20-40%.

For `Oc1cnccc1-c1nnc(-c2ccncc2O)nn1` [2.8, 4,4′-(1,2,4,5-Tetrazine-3,6-diyl)bis(pyridin-3-ol)], which “in vivo reaction yield between the TCO and activator” value [1] is on record?
Its value is 20-40%.

With `O=C(CCCC(=O)Nc1cccnc1-c1nnc(-c2ncccc2NC(=O)CCCC(=O)NCCOCCOCCOCCOCCOCCOCCOCCOCCOCCO)nn1)NCCOCCOCCOCCOCCOCCOCCOCCOCCOCCO` [2.14, N^1,N^1′-(2,2′-(1,2,4,5-Tetrazine-3,6-diyl)bis(pyridine-3,2-diyl))bis(N^5-(29-hydroxy-3,6,9,12,15,18,21,24,27-nonaoxanonacosyl)glutaramide)] as the compound, how does the “in vivo reaction yield between the TCO and activator” value [1] read?
Its value is 43-65%.

For `Cc1nnc(C)nn1` [2.17, 3,6-bismethyl-tetrazine, reference compound], which maximum release yield ([2]; typical) is on record?
The maximum release yield was 80-90%.

With `c1ccc(-c2nnc(-c3ccccn3)nn2)nc1` [2.18, 3,6-bis(2-pyridinyl)-tetrazine, reference compound] as the compound, how does the click release yield ([2]; PBS/MeCN (3:1)) read?
The click release yield was 7%.

What about the click release yield ([2]; serum) of the same compound?
Its click release yield is 12%.
